Experimental findings from the supplement of paper PMC7125110 are described below.

The term KM denotes the substrate concentration at which the rate is half of its maximum. As usually defined, the kcat is the number of substrate molecules converted per active site and unit of time at saturation.

± gives the standard error. Many entries were measured with a wide error.

Sequences and labels used below:
B1: glmS ribozyme (parent)
chain: AUAAAAGCGCCAGAACUACAGAAAUGUAGUUGACGAGGAGGAGGUUUAUCGAAUUUUCGGCGGAUGCCUCCAAA

In the first data set the parent is B1. The data set is described as follows: KM; higher = weaker cofactor use; RNA array. To be noted: with glucosamine-6-phosphate. The method in brief:
(§1)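 In situ transcription by E. coli RNA polymerase produced barcoded ribozyme variants on sequenced MiSeq chips, and a hybridised Cy3 probe tracked them at 37 °C. Glucosamine-6-phosphate was flowed in at 40 μM to 10 mM in HEPES/KCl/Mg(OAc)2 buffer. kcat and KM were taken from weighted Michaelis–Menten fits of kobs values from exponential decay fits.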
For the variant A14C A48C, the KM is 992 ± 920 µM.

Turning to C11U U31G, the KM was 4430 ± 2800 µM.

Take U30G C71U: the KM is 3100 ± 2900 µM.

A52U G66U: the KM was 726 ± 420 µM.

Take A39G G40C: the Michaelis constant (KM) was 605 ± 360 µM.

Take G44A C67A: the Michaelis constant (KM) is 3330 ± 2100 µM.

As for C16G A33C, the KM came to 539 ± 390 µM.

As to A48C A53U, the KM amounted to 2410 ± 320 µM.

With U47C A52U, the KM was determined as 3930 ± 1200 µM.

G29U A53G: the KM is 2380 ± 1500 µM.

A6C C68U: the KM was found to be 534 ± 140 µM.

For the variant A53U C71G, the KM is 85.2 ± 54 µM.

U47A C67U: the KM turned out to be 1910 ± 1000 µM.

Regarding A39G A53C, the KM came to 4280 ± 2600 µM.

In the case of A12G A15C, the KM stood at 14900 ± 5200 µM.

With A39U U45G, the KM was found to be 2650 ± 300 µM.

On to A15C C70G, for which the KM was 115 ± 73 µM.

With G13A A39G C61G C70A, the KM amounted to 24.6 ± 16 µM.

Consider A39G C70U, for which the KM worked out at 1280 ± 1000 µM.

As to A12G A48G, the KM stood at 704 ± 640 µM.

As to A14U C16U, the KM was found to be 701 ± 560 µM.

U47A U69A: the Michaelis-Menten constant (KM) is 36.8 ± 33 µM.

For the variant C67G U69C, the KM was found to be 958 ± 170 µM.

Turning to A39C U47G, the KM came to 2130 ± 1600 µM.

Turning to U30A A39U, the KM came to 1480 ± 1000 µM.

As for G37A C67G, the KM was determined as 744 ± 550 µM.

Take A14C U65G C70U: the Michaelis constant (KM) was 4250 ± 2200 µM.

On to C16A G40A, for which the KM came out at 1490 ± 1500 µM.

With A39G A52U, the KM is 13000 ± 3500 µM.

As for U56A C71U, the KM came to 4940 ± 3700 µM.

On to A6G C11A, for which the KM is 29300 ± 12000 µM.

Regarding C16G G66U, the KM is 2380 ± 200 µM.

As to U30A U56C, the Michaelis constant (KM) was 14900 ± 6300 µM.

On to A6U G13A, for which the KM is 29.9 ± 24 µM.

In the case of A14C G44C C67G, the KM came to 2580 ± 1700 µM.

As to C34A A36C U45A, the KM amounted to 2250 ± 2200 µM.

Consider G29U U49G, for which the KM came out at 5270 ± 1900 µM.

For the variant G26U U65G, the KM was determined as 4570 ± 1200 µM.

Take A15G C58G: the KM is 10400 ± 4100 µM.

Turning to A39U A42G C67U, the Michaelis-Menten constant (KM) was 946 ± 870 µM.

U46C U47A: the KM is 2210 ± 1400 µM.

With G13U C61A, the KM worked out at 158 ± 120 µM.

Take A15U A53U: the KM was determined as 2950 ± 940 µM.

Turning to U47A U55C, the KM worked out at 1940 ± 1100 µM.

In the case of G13A A42C, the KM stood at 16.9 ± 12 µM.

Regarding A12C U69G, the KM was found to be 40.2 ± 35 µM.

Take A15G G43A: the KM worked out at 2300 ± 940 µM.

Turning to A33U G66A, the KM turned out to be 2790 ± 180 µM.

Turning to G9A C67G, the KM is 185 ± 120 µM.

Turning to C16U A64G, the KM was 1550 ± 830 µM.

Take G38A U54A: the KM turned out to be 239 ± 140 µM.

Regarding G29U U54C, the KM was determined as 1540 ± 590 µM.

Turning to C16A A53G, the KM is 1640 ± 990 µM.

A further data set covers variants of B1. The data set is described as follows: kcat; higher = faster cleavage; RNA array. To be noted: with glucosamine-6-phosphate. The method in brief:
as §1
Consider C8G C10A, for which the catalytic constant (kcat) was below 1e-05 s⁻¹.

As to U30G C71U, the kcat amounted to 0.0102 ± 0.0073 s⁻¹.

For A39G G40C, the kcat came out at 9.61e-05 ± 1.3e-05 s⁻¹.

For the variant G59U C70G, the kcat was determined as 2.04e-05 ± 1.7e-05 s⁻¹.

Take C34G C50G G59A C67G: the kcat was 4.06e-05 ± 2.9e-05 s⁻¹.

Turning to G32A U56G, the kcat is 0.00182 ± 0.0014 s⁻¹.

Turning to G29U A53G, the kcat came out at 0.00448 ± 0.0019 s⁻¹.

Turning to A39G A53C, the kcat came out at 0.0214 ± 0.011 s⁻¹.

Consider A12G A15C, for which the kcat turned out to be 0.000514 ± 0.00013 s⁻¹.

As for A33U A53C, the kcat was below 1e-05 s⁻¹.

On to A14G C61A, for which the kcat amounted to 1.1e-05 ± 4.8e-06 s⁻¹.

As for A39G C70U, the kcat was 0.0226 ± 0.013 s⁻¹.

Take A14U C16U: the kcat came to 0.00393 ± 0.0021 s⁻¹.

For the variant A12U A15U A42G, the kcat came out at 0.00216 ± 0.0014 s⁻¹.

As for C11G C67A C71G, the catalytic constant (kcat) amounted to 5.25e-05 ± 2.8e-05 s⁻¹.

On to C67G U69C, for which the kcat is 0.00123 ± 0.00012 s⁻¹.

For the variant U30A A39U, the kcat amounted to 0.00467 ± 0.0022 s⁻¹.

A6G C71A: the kcat amounted to 3.93e-05 ± 3.2e-05 s⁻¹.

With G29U C70U, the kcat came out at 0.000631 ± 0.00032 s⁻¹.

As to U31G A48U, the kcat is 9.2e-05 ± 5.6e-05 s⁻¹.

Take G32U A39G: the catalytic constant (kcat) is 0.00159 ± 0.0016 s⁻¹.

U56A C71U: the kcat was found to be 0.0254 ± 0.017 s⁻¹.

Turning to A6U G13U G37U A48U U69G, the kcat came out at 4.37e-05 ± 3.1e-05 s⁻¹.

With C8A C10U C68A, the turnover number (kcat) amounted to 3.93e-05 ± 2.6e-05 s⁻¹.

For A39U A42G C67U, the catalytic constant (kcat) turned out to be 0.00435 ± 0.0028 s⁻¹.

Take C50G G66C: the kcat worked out at 3.21e-05 ± 1.9e-05 s⁻¹.

Consider G13U G44U, for which the kcat is below 1e-05 s⁻¹.

As for G44U U65A, the catalytic constant (kcat) came to 0.000116 ± 9.7e-05 s⁻¹.

In a further data set the parent is B1. The data set is described as follows: self-cleavage kobs at 2500 uM GlcN6P; higher = faster cleavage; RNA array. The conditions noted are these: with glucosamine-6-phosphate. A digest of the protocol: as §1
G59U C70G: the “self-cleavage kobs at 2500 uM GlcN6P” value is 2.26e-05 ± 1.5e-05 s⁻¹.

As to A12G A48G, the “self-cleavage kobs at 2500 uM GlcN6P” value was 1.92e-05 ± 1.3e-05 s⁻¹.

Take C8A C10U C68A: the “self-cleavage kobs at 2500 uM GlcN6P” value was determined as 9.63e-05 ± 5.4e-05 s⁻¹.

As to C50G G66C, the “self-cleavage kobs at 2500 uM GlcN6P” value came out at 4e-05 ± 2.2e-05 s⁻¹.

For the variant G44U U65A, the “self-cleavage kobs at 2500 uM GlcN6P” value is 1.71e-05 ± 1.3e-05 s⁻¹.

The variants in another data set derive from B1. Briefly: self-cleavage kobs at 640 uM GlcN6P; higher = faster cleavage; RNA array. To be noted: with glucosamine-6-phosphate. A digest of the protocol:
as §1
In the case of C34G C50G G59A C67G, the “self-cleavage kobs at 640 uM GlcN6P” value came out at 2.36e-05 ± 2.3e-05 s⁻¹.

Consider A6C C68U, for which the “self-cleavage kobs at 640 uM GlcN6P” value is 2.26e-05 ± 1.4e-05 s⁻¹.

Regarding A12G A15C, the “self-cleavage kobs at 640 uM GlcN6P” value was 1.42e-05 ± 8.5e-06 s⁻¹.

In the case of C8A C10U C68A, the “self-cleavage kobs at 640 uM GlcN6P” value was determined as 0.000904 ± 0.00071 s⁻¹.

Take A15G C58G: the “self-cleavage kobs at 640 uM GlcN6P” value worked out at 1.91e-05 ± 1e-05 s⁻¹.

Turning to G44U U65A, the “self-cleavage kobs at 640 uM GlcN6P” value was 2.26e-05 ± 2e-05 s⁻¹.

In another data set the parent is B1. The data set is described as follows: self-cleavage kobs at 10000 uM GlcN6P; higher = faster cleavage; RNA array. To be noted: with glucosamine-6-phosphate. The method in brief:
as §1
For the variant A12G A48G, the “self-cleavage kobs at 10000 uM GlcN6P” value amounted to 1.82e-05 ± 1.2e-05 s⁻¹.

With A12U A15U A42G, the “self-cleavage kobs at 10000 uM GlcN6P” value worked out at 0.0212 ± 0.015 s⁻¹.

Take C11G C67A C71G: the “self-cleavage kobs at 10000 uM GlcN6P” value came out at 2.54e-05 ± 1.6e-05 s⁻¹.

C8A C10U C68A: the “self-cleavage kobs at 10000 uM GlcN6P” value was 2.72e-05 ± 2.4e-05 s⁻¹.

For C50G G66C, the “self-cleavage kobs at 10000 uM GlcN6P” value is 2.08e-05 ± 1.5e-05 s⁻¹.

Variants of B1 are the subject of the next data set. The data set is described as follows: self-cleavage kobs at 40 uM GlcN6P; higher = faster cleavage; RNA array. To be noted: with glucosamine-6-phosphate. A digest of the protocol: as §1
U47A U69A: the “self-cleavage kobs at 40 uM GlcN6P” value is 4.51e-05 ± 2.4e-05 s⁻¹.

On to A39C U47G, for which the “self-cleavage kobs at 40 uM GlcN6P” value is 3.44e-05 ± 2.3e-05 s⁻¹.

As for U30A U56C, the “self-cleavage kobs at 40 uM GlcN6P” value is 1.8e-05 ± 1.6e-05 s⁻¹.

For the variant C8A C10U C68A, the “self-cleavage kobs at 40 uM GlcN6P” value was 3.39e-05 ± 2.5e-05 s⁻¹.

For C50G G66C, the “self-cleavage kobs at 40 uM GlcN6P” value stood at 2.61e-05 ± 1.7e-05 s⁻¹.

For A12C U69G, the “self-cleavage kobs at 40 uM GlcN6P” value amounted to 2.57e-05 ± 2.1e-05 s⁻¹.

Variants of B1 are the subject of a further data set. Briefly: self-cleavage kobs at 160 uM GlcN6P; higher = faster cleavage; RNA array. The conditions noted are these: with glucosamine-6-phosphate. A digest of the protocol: as §1
With G32U A39G, the “self-cleavage kobs at 160 uM GlcN6P” value came to 2.96e-05 ± 2.1e-05 s⁻¹.
